Measurements reported in article PMC3891853.

By UniProt entry, the sequences of proteins in these tests, tags left out. Where a name states a change or a piece, a line headed by the entry shows the natural chain unless it says otherwise.
UniProt P04150: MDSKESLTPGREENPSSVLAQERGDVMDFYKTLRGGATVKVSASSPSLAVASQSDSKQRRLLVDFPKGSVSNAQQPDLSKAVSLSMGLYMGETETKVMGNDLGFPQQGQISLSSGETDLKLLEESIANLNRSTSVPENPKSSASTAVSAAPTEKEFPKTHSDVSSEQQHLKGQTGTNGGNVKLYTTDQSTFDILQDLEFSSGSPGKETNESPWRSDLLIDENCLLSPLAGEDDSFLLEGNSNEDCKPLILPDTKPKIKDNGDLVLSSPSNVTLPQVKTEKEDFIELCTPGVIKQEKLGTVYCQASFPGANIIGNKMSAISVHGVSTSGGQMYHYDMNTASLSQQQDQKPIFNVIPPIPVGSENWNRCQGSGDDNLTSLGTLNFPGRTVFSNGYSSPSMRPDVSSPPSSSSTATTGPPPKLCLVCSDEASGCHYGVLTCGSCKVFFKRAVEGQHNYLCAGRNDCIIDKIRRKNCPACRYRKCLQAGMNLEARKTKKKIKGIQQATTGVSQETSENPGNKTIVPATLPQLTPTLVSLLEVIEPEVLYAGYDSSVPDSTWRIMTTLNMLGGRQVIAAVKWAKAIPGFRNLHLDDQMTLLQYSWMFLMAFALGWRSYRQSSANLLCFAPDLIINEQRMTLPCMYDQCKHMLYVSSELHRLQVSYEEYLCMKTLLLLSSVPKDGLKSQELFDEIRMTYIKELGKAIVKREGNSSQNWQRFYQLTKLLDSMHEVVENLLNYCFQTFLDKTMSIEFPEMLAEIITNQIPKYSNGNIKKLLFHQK
UniProt P11142: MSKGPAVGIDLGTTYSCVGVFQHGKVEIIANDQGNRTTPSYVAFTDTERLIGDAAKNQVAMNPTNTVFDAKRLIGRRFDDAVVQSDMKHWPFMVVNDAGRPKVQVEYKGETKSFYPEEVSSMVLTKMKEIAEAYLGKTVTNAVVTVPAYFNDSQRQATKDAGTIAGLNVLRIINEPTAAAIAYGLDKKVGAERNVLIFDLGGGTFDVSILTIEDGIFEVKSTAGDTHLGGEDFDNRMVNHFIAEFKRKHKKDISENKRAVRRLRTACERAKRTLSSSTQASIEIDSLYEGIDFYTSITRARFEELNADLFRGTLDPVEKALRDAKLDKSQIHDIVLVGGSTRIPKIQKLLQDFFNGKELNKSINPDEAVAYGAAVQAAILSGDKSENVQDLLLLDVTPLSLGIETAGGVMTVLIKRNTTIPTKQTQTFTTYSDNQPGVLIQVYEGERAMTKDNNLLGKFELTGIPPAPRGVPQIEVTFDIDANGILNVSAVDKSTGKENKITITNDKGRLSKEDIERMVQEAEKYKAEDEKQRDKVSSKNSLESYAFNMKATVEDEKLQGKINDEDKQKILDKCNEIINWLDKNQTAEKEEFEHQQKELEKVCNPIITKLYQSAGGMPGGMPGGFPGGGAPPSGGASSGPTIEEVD

Assays:
[1] = target: ligand binding domain of the glucocorticoid receptor (GR-LBD), Myc/His-tagged (UniProt P04150); test: pull-down; GR-LBD immobilised on anti-c-myc agarose; [35S]-labeled in vitro translated Hsc70 in 50% desalted reticulocyte lysate, buffer B (100 mM KOAc, 20 mM HEPES-KOH pH 7.5, 5% glycerol), 5 mM MgOAc2, with or without 1 mM ATP; bound Hsc70 read with a phospho-imager; only the target purified
[2] = target: Flag-tagged wild-type Bcl2-associated athanogene 1, medium isoform (BAG-1M) (human); test: co-IP; Flag-tagged NEF precipitated with anti-Flag M2 agarose from 1.5 mg HEK293 cellular extract in 1 ml; no ATP added; eluted with Flag-peptide; Western blot and colloidal Coomassie

Hsc70, in vitro translated and labeled (from UniProt P11142 1-646)
binding [1]: binds

B1: Hsp70-interacting protein (Hip), endogenous (protein, UniProt P50502 1-369)
chain: MDPRKVNELRAFVKMCKQDPSVLHTEEMRFLREWVESMGGKVPPATQKAKSEENTKEEKPDSKKVEEDLKADEPSSEESDLEIDKEGVIEPDTDAPQEMGDENAEITEEMMDQANDKKVAAIEALNDGELQKAIDLFTDAIKLNPRLAILYAKRASVFVKLQKPNAAIRDCDRAIEINPDSAQPYKWRGKAHRLLGHWEEAAHDLALACKLDYDEDASAMLKEVQPRAQKIAEHRRKYERKREEREIKERIERVKKAREEHERAQREEEARRQSGAQYGSFPGGFPGGMPGNFPGGMPGMGGGMPGMAGMPGLNEILSDPEVLAAMQDPEVMVAFQDVAQNPANMSKYQSNPKVMNLISKLSAKFGGQA
binding [2]: no binding

Results are given in words; binding and its absence hold for the method and conditions named. In cells and extracts the contact can be indirect. For some assays here: Binding calls can cover weak binding; strength is not graded here.
